Here are results for five compounds from PubChem BioAssay AID212 (DTP/NCI, 2004).

The list does not hold the whole screen: it gathers tests that were run many times, whatever their T/C, doses with no T/C, and many T/C values between a quarter and a half above the control. Other doses and runs of a compound stand elsewhere. T/C is the treated group as % of the vehicle group. Schedules are NCI's codes, read here as Q, the interval in days (D) or hours (H), X, the number of doses. Some T/C values are followed by the survivors on the day toxicity was checked, most often the fifth; without a count, all were alive then. Some entries were tested several times; their values stand side by side, smallest first. Additions like (4×) give the number of equal values in this list. Some doses have a count of surviving animals in place of a T/C: the source files T/C as zero there, which appears to mark a toxic dose or a test without result, not a measured value. Counts of survivors are from the toxicity check (mostly the fifth day) where no day follows; animals may have died later. Where survival is the endpoint, the PubChem record calls one and a half times the control and up active, and a quarter to a half above the control has no call in these data; cut-offs in other NCI protocols can differ.

The assay relates to BDF1 mice, colon carcinoma 38 sc, T/C %. Put plainly: NCI In Vivo Anticancer Drug Screen. Data for tumor model Colon Carcinoma 38 (subcutaneous) in B6D2F1 (BDF1) mice. The method, boiled down: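 Mice with transplanted tumors are treated with compound or vehicle. Survival or tumor size is then measured in both groups. The ratio of treated to control gives the reported figure.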

The mark [1] stands for this setting: T/C endpoint: median tumor weight (est.), dose: 8.0 mg/kg/injection, schedule: Q07DX002 (ip), vehicle: water, higher T/C = larger tumour.
Where [2] appears, read: T/C endpoint: median tumor weight (est.), dose: 12.0 mg/kg/injection, schedule: Q07DX002 (ip), vehicle: saline, higher T/C = larger tumour.
The mark [3] stands for this setting: T/C endpoint: median tumor weight (est.), dose: 16.0 mg/kg/injection, schedule: Q07DX002 (ip), vehicle: water, higher T/C = larger tumour.

On to `Oc1ccc(O)cc1`, for which the survivor count (T/C endpoint: median tumor weight (est.), dose: 200.0 mg/kg/injection, schedule: Q07DX002 (ip), vehicle: suspension in saline, higher T/C = larger tumour) is on record as 0 of 10 on day 20.

As for `CSc1ncnc2c1ncn2C1OC(CO)C(O)C1O` (stereo not given), the T/C (T/C endpoint: median tumor weight (est.), dose: 50.0 mg/kg/injection, schedule: Q07DX002 (ip), vehicle: saline + alcohol, evaluated on day 20, higher T/C = larger tumour) is 130 % of control.

With `OCCN1CCN(CCCN2c3ccccc3Sc3ccc(C(F)(F)F)cc32)CC1`, the survivor count (T/C endpoint: median tumor weight (est.), dose: 100.0 mg/kg/injection, schedule: Q07DX002 (ip), vehicle: saline, higher T/C = larger tumour) is 6 of 10 on day 20.

With `O=C1C=C2C(=CCOC2O)O1` (stereo not given), the T/C runs as follows: (T/C endpoint: median tumor weight (est.), dose: 0.5 mg/kg/injection, schedule: Q07DX002 (ip), vehicle: water, evaluated on day 20, higher T/C = larger tumour) 144 % of control; (T/C endpoint: median tumor weight (est.), dose: 3.0 mg/kg/injection, schedule: Q07DX002 (ip), vehicle: saline, evaluated on day 20, higher T/C = larger tumour) 141 % of control [9 of 10 alive on day 20]. For the same compound, the survivor count is given as 4 of 10 on day 20 (T/C endpoint: median tumor weight (est.), dose: 6.0 mg/kg/injection, schedule: Q07DX002 (ip), vehicle: saline, higher T/C = larger tumour); 0 of 10 on day 20 under setting [1]; 1 of 10 on day 20 under setting [2]; 0 of 10 on day 20 under setting [3].

`COc1cccc2c1C(=O)c1c(O)c3c(c(O)c1C2=O)C[C@@](O)(C(=O)CO)C[C@@H]3OC1CC(N)C(O)C(C)O1` (stereo not given in full): the T/C (T/C endpoint: median survival time, dose: 2.0 mg/kg/injection, schedule: Q07DX002 (iv), vehicle: saline, higher T/C = longer survival) was 126 % of control; the T/C (T/C endpoint: median survival time, dose: 3.2 mg/kg/injection, schedule: Q07DX002 (iv), vehicle: saline, higher T/C = longer survival) is 134 % of control; the T/C (T/C endpoint: median survival time, dose: 3.3 mg/kg/injection, schedule: Q07DX002 (sc), vehicle: saline, higher T/C = longer survival) is 142 % of control; the T/C (T/C endpoint: median survival time, dose: 4.0 mg/kg/injection, schedule: Q07DX003 (iv), vehicle: saline, higher T/C = longer survival) was 125 % of control; the T/C (T/C endpoint: median survival time, dose: 5.2 mg/kg/injection, schedule: Q07DX002 (sc), vehicle: saline, higher T/C = longer survival) was 145 % of control; the T/C (T/C endpoint: median survival time, dose: 6.0 mg/kg/injection, schedule: Q07DX003 (sc), vehicle: saline, higher T/C = longer survival) was 143 % of control. Also, the T/C is 127 % of control (T/C endpoint: median survival time, dose: 6.4 mg/kg/injection, schedule: Q07DX003 (iv), vehicle: saline, higher T/C = longer survival); 147 % of control [9 of 10 alive on day 44] (T/C endpoint: median survival time, dose: 8.4 mg/kg/injection, schedule: Q07DX002 (iv), vehicle: saline, higher T/C = longer survival); 148 % of control [9 of 10 alive on day 60] (T/C endpoint: median survival time, dose: 10.0 mg/kg/injection, schedule: Q07DX003 (iv), vehicle: saline, higher T/C = longer survival); 71, 85, 89, 137, 157 % of control (2×) (T/C endpoint: median tumor weight (est.), dose: 0.5 mg/kg/injection, schedule: Q07DX002 (ip), vehicle: saline, evaluated on day 20, higher T/C = larger tumour); 43 [8 of 9 alive on day 20], 53, 81, 100, 106 [9 of 10 alive on day 20], 108, 109, 117, 133, 152 % of control [9 of 10 alive on day 20] (T/C endpoint: median tumor weight (est.), dose: 1.0 mg/kg/injection, schedule: Q07DX002 (ip), vehicle: saline, evaluated on day 20, higher T/C = larger tumour); 55, 71, 100 (2×), 100 % of control [9 of 10 alive on day 20] (T/C endpoint: median tumor weight (est.), dose: 1.0 mg/kg/injection, schedule: Q07DX002 (ip), vehicle: water, evaluated on day 20, higher T/C = larger tumour). In addition, the T/C was 125 % of control (T/C endpoint: median tumor weight (est.), dose: 1.5 mg/kg/injection, schedule: Q07DX002 (ip), vehicle: saline, evaluated on day 20, higher T/C = larger tumour); 67 [9 of 10 alive on day 20], 70, 81, 85, 90, 93, 108, 109, 114, 126 % of control (T/C endpoint: median tumor weight (est.), dose: 2.0 mg/kg/injection, schedule: Q07DX002 (ip), vehicle: saline, evaluated on day 20, higher T/C = larger tumour); 60, 61, 73, 92 (2×), 111, 113 % of control (T/C endpoint: median tumor weight (est.), dose: 2.0 mg/kg/injection, schedule: Q07DX002 (ip), vehicle: water, evaluated on day 20, higher T/C = larger tumour); 138 % of control (T/C endpoint: median tumor weight (est.), dose: 2.25 mg/kg/injection, schedule: Q07DX002 (ip), vehicle: water, evaluated on day 20, higher T/C = larger tumour); 55, 56, 64, 69, 84, 88, 92 (2×), 97, 101 % of control (T/C endpoint: median tumor weight (est.), dose: 4.0 mg/kg/injection, schedule: Q07DX002 (ip), vehicle: saline, evaluated on day 20, higher T/C = larger tumour); 18, 63 (2×), 71, 84, 98, 108 % of control (T/C endpoint: median tumor weight (est.), dose: 4.0 mg/kg/injection, schedule: Q07DX002 (ip), vehicle: water, evaluated on day 20, higher T/C = larger tumour). The T/C reads like this: (T/C endpoint: median tumor weight (est.), dose: 4.5 mg/kg/injection, schedule: Q07DX002 (ip), vehicle: water, evaluated on day 20, higher T/C = larger tumour) 141 % of control; (T/C endpoint: median tumor weight (est.), dose: 8.0 mg/kg/injection, schedule: Q07DX002 (ip), vehicle: saline, evaluated on day 20, higher T/C = larger tumour) 14 [9 of 10 alive on day 20], 24, 27 [7 of 10 alive on day 20], 30, 79 [7 of 10 alive on day 20], 80, 105 % of control; (T/C endpoint: median tumor weight (est.), dose: 8.0 mg/kg/injection, schedule: Q07DX002 (ip), vehicle: water, evaluated on day 20, higher T/C = larger tumour) 57, 62, 123 % of control; (T/C endpoint: median tumor weight (est.), dose: 16.0 mg/kg/injection, schedule: Q07DX002 (ip), vehicle: water, evaluated on day 20, higher T/C = larger tumour) 17 and 70 % of control. Further, the survivor count was 6 of 10 on day 44 (T/C endpoint: median survival time, dose: 13.5 mg/kg/injection, schedule: Q07DX002 (iv), vehicle: saline, higher T/C = longer survival); 3 of 10 on day 60 (T/C endpoint: median survival time, dose: 13.5 mg/kg/injection, schedule: Q07DX003 (iv), vehicle: saline, higher T/C = longer survival); 4 of 10 on day 44 (T/C endpoint: median survival time, dose: 13.6 mg/kg/injection, schedule: Q07DX002 (sc), vehicle: saline, higher T/C = longer survival); 2 of 10 on day 92 and 5 of 10 on day 81 (T/C endpoint: median survival time, dose: 14.0 mg/kg/injection, schedule: Q07DX002 (iv), vehicle: saline, higher T/C = longer survival); 2 of 10 on day 107 (T/C endpoint: median survival time, dose: 14.0 mg/kg/injection, schedule: Q07DX004 (iv), vehicle: saline, higher T/C = longer survival); 5 of 10 on day 81 (T/C endpoint: median survival time, dose: 19.0 mg/kg/injection, schedule: Q07DX002 (sc), vehicle: saline, higher T/C = longer survival). Further, the survivor count was 1 of 10 on day 63 (T/C endpoint: median survival time, dose: 21.0 mg/kg/injection, schedule: Q07DX003 (sc), vehicle: saline, higher T/C = longer survival); 0 of 10 on day 44 (T/C endpoint: median survival time, dose: 22.0 mg/kg/injection, schedule: Q07DX002 (sc), vehicle: saline, higher T/C = longer survival); 0 of 10 on day 60 (T/C endpoint: median survival time, dose: 25.0 mg/kg/injection, schedule: Q07DX003 (iv), vehicle: saline, higher T/C = longer survival); 3 of 10 on day 20 and 6 of 10 on day 20 (T/C endpoint: median tumor weight (est.), dose: 8.0 mg/kg/injection, schedule: Q07DX002 (ip), vehicle: saline, higher T/C = larger tumour); 1 of 10 on day 20, 5 of 10 on day 20, 6 of 10 on day 20 under setting [1]; 3 of 10 on day 20 (T/C endpoint: median tumor weight (est.), dose: 10.0 mg/kg/injection, schedule: Q07DX002 (ip), vehicle: saline, higher T/C = larger tumour). The survivor count by setting is: (T/C endpoint: median tumor weight (est.), dose: 10.0 mg/kg/injection, schedule: Q07DX002 (ip), vehicle: water, higher T/C = larger tumour) 2 of 10 on day 20; under setting [2], 3 of 10 on day 20; (T/C endpoint: median tumor weight (est.), dose: 12.0 mg/kg/injection, schedule: Q07DX002 (ip), vehicle: water, higher T/C = larger tumour) 1 of 10 on day 20 and 5 of 10 on day 20; (T/C endpoint: median tumor weight (est.), dose: 16.0 mg/kg/injection, schedule: Q07DX002 (ip), vehicle: saline, higher T/C = larger tumour) 0 of 10 on day 20, 2 of 10 on day 20, 5 of 10 on day 20; under setting [3], 0 of 10 on day 20 and 2 of 10 on day 20; (T/C endpoint: median tumor weight (est.), dose: 18.0 mg/kg/injection, schedule: Q07DX002 (ip), vehicle: water, higher T/C = larger tumour) 0 of 10 on day 20. For the same compound, the survivor count reads like this: (T/C endpoint: median tumor weight (est.), dose: 20.0 mg/kg/injection, schedule: Q07DX002 (ip), vehicle: saline, higher T/C = larger tumour) 0 of 10 on day 20; (T/C endpoint: median tumor weight (est.), dose: 20.0 mg/kg/injection, schedule: Q07DX002 (ip), vehicle: water, higher T/C = larger tumour) 0 of 10 on day 20 and 2 of 10 on day 20; (T/C endpoint: median tumor weight (est.), dose: 24.0 mg/kg/injection, schedule: Q07DX002 (ip), vehicle: saline, higher T/C = larger tumour) 0 of 10 on day 20 and 5 of 10 on day 20; (T/C endpoint: median tumor weight (est.), dose: 24.0 mg/kg/injection, schedule: Q07DX002 (ip), vehicle: water, higher T/C = larger tumour) 0 of 10 on day 20; (T/C endpoint: median tumor weight (est.), dose: 32.0 mg/kg/injection, schedule: Q07DX002 (ip), vehicle: water, higher T/C = larger tumour) 0 of 10 on day 20; (T/C endpoint: median tumor weight (est.), dose: 48.0 mg/kg/injection, schedule: Q07DX002 (ip), vehicle: water, higher T/C = larger tumour) 0 of 10 on day 20.
